Test results taken from patent US5486595A, “Tumor necrosis factor inhibitors” (Centecor, Inc., priority 1994, dated 1996).
At least one peptide structure holds a part that was inferred or is arguable (an end, a ring closure or a residue). Where a SMILES comes first, the peptide text is derived from it.

Chains of the proteins cited; added tags and fusions are not shown. Residues count along the entry.
UniProt P01375, 77-233 limits assumed: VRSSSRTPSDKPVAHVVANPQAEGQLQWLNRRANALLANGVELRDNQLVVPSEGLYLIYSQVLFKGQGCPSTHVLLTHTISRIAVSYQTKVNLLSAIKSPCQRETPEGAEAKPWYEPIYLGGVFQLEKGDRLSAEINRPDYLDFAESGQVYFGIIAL

Target: T1, human TNFα (Homo sapiens, UniProt P01375)
T1 construct: purchased Biosource, Camarillo, Calif
Test: p55 Receptor/IgG Fusion Protein Binding Assay (inhibition of TNFα capture by p55-Ig coated plate)
Details: various concentrations of peptide
Description: This assay was designed to identify peptides which bind to human TNFα and thereby prevent the capture of the TNFα by a microtiter plate coated with p55-Ig fusion protein. A constant concentration of human TNFα is preincubated with the test peptide and then incubated on the p55-Ig coated microtiter wells. Bound TNFα is detected using a specific antisera and an alkaline phosphatase-conjugated probe.
A 96-well, U-bottom polyvinylchloride microtiter plate was coated with 50 μl/well of p55-Ig fusion protein at 5 μg/ml in 0.01M sodium phosphate, 0.15M sodium chloride (PBS) by incubation overnight at 4° C. or 2 hours at 37° C. The fusion protein, which consists of a p55 TNF receptor protein portion and an IgG portion, can be produced as disclosed in U.S. application Ser. No. 08/010,406 filed Jan. […]
To detect TNFα captured by the p55-Ig plate, all wells were incubated in succession with polyclonal rabbit anti-human TNFα (Genzyme, Boston, Mass.; 1:500 in assay buffer, 50 μl/well), biotinylated goat anti-rabbit Ig (H&L) (Vector Laboratories, Burlingame, Calif.; 1 μg/ml in assay buffer, 50 μl/well) and streptavidin-alkaline phosphatase conjugate (Pierce, Rockford, Ill.; 1 μg/ml in assay buffer, 50 μl/well). […] The optical density (OD) at 405 nm was measured on a microtiter plate reader (Molecular Devices Vmax plate reader), with the plate blank wells subtracted as background. […]

**Q.** How did the “dose dependent inhibition of TNFα (FIG. 1)” value turn out when `CC(C)C[C@H](NC(=O)[C@H](C)NC(=O)[C@H](CC(C)C)NC(=O)[C@H](CO)NC(=O)[C@H](C)NC(=O)[C@H](CC(N)=O)NC(=O)[C@H](Cc1ccccc1)NC(=O)[C@H](C)NC(=O)[C@H](CCC(N)=O)NC(=O)[C@H](Cc1ccccc1)NC(=O)[C@H](CC(C)C)NC(=O)[C@H](CC(N)=O)NC(=O)[C@H](CCC(=O)O)NC(=O)[C@@H](N)CO)C(=O)N[C@@H](CC(N)=O)C(N)=O` [SEQ ID NO:24] (H-SENLFQAFNASLALN-NH2) was run?
**A.** dose dependent inhibition
